{
  "source": "patent US20100226888A1",
  "about": "“Ethanol Enhances the Complete Replication of Hepatitis C Virus: the Role of Acetaldehyde” (priority 2009, published 2010)",
  "test_system": "NADH/NAD+ ratio",
  "experiment": "NADH/NAD+ enzymatic NADH recycling assay",
  "format": "cell-based, human",
  "conditions": "with 5 mM pyruvate, 3 h",
  "note": "At least one compound was matched to its structure with a doubt left.",
  "data": [
    {"smiles": "CC(=O)C(=O)O", "note": "[pyruvate]", "values": [
      {"measurement": "increases in NADH levels during ethanol, acetaldehyde, acetate, isopropyl alcohol, and acetone treatments", "result": "completely abrogated"}
    ]}
  ]
}
